PubChem BioAssay AID1224830 – NIAID – 2016
Assay: 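Regulators of TLR4 signalling towards TNF-alpha in macrophage-like cells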 (primary screen). Cell system: human THP-1 monocytic leukaemia cells, TNF dual-luciferase reporter clone, PMA-differentiated to macrophage-like cells. Reagent: siRNA pool against human genes, 50 nM. Time to read-out: LPS for 4 h, given about 3 days after siRNA transfection. Treatment: bacterial LPS (TLR4 ligand), 10 ng/ml. Detection: 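Ratio of firefly to renilla light, scaled to the plate median and expressed as a robust z-score per replicate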. Direction: TNF reporter robust z-score: higher = stronger TNF reporter response to LPS. Hit rule: 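Each well counts as active if its z-score is over 2.8 or under -1.5; controls are left without a call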.
The deposit covers about 18,000 reagents; below is a part drawn at random. About 2,900 of them (16%) count as active. 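Calls are made per well; low scores hint the gene aids the LPS response, high scores that it dampens it.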 Repeated entries: four replicate wells of each siRNA pool. Reagent sequences are not shown.

CAMK1G (calcium/calmodulin dependent protein kinase IG) showed TNF reporter robust z-score -1.09; inactive. Against CAMK1G (calcium/calmodulin dependent protein kinase IG), the entry reads TNF reporter robust z-score -0.06; inactive. Against CAMK1G (calcium/calmodulin dependent protein kinase IG), the entry reads TNF reporter robust z-score 0.13; inactive. CAMK1G (calcium/calmodulin dependent protein kinase IG) gave TNF reporter robust z-score 0.63; inactive. Knock-down of FAM174C (family with sequence similarity 174 member C) resulted in: TNF reporter robust z-score -1.3; inactive. FAM174C (family with sequence similarity 174 member C) showed TNF reporter robust z-score -1.32; inactive.

With knock-down of FAM174C (family with sequence similarity 174 member C), the screen gave TNF reporter robust z-score -1.6; active. For FAM174C (family with sequence similarity 174 member C), the entry reads TNF reporter robust z-score -1.11; inactive. Against CBLN3 (cerebellin 3 precursor), the values are TNF reporter robust z-score 0.72; inactive. Silencing of CBLN3 (cerebellin 3 precursor) gave: TNF reporter robust z-score 3.3; active. Against CBLN3 (cerebellin 3 precursor), the values are TNF reporter robust z-score 0.43; inactive. Knock-down of CBLN3 (cerebellin 3 precursor) gave: TNF reporter robust z-score 0.61; inactive.

Silencing of EEF1A2 (eukaryotic translation elongation factor 1 alpha 2) gave: TNF reporter robust z-score 0.66; inactive. With knock-down of EEF1A2 (eukaryotic translation elongation factor 1 alpha 2) the results were TNF reporter robust z-score 1.11; inactive. EEF1A2 (eukaryotic translation elongation factor 1 alpha 2) scored TNF reporter robust z-score 1.22; inactive. EEF1A2 (eukaryotic translation elongation factor 1 alpha 2) scored TNF reporter robust z-score 0.56; inactive. ATL1 (atlastin GTPase 1) showed TNF reporter robust z-score 1.6; inactive. For ATL1 (atlastin GTPase 1), the entry reads TNF reporter robust z-score -0.03; inactive.

After knock-down of ATL1 (atlastin GTPase 1) the results were TNF reporter robust z-score -0.34; inactive. ATL1 (atlastin GTPase 1) gave TNF reporter robust z-score -0.17; inactive. For DNAJC24 (DnaJ heat shock protein family (Hsp40) member C24), the values are TNF reporter robust z-score 0.13; inactive. For DNAJC24 (DnaJ heat shock protein family (Hsp40) member C24), the values are TNF reporter robust z-score 0.72; inactive. Depletion of DNAJC24 (DnaJ heat shock protein family (Hsp40) member C24) gave: TNF reporter robust z-score 2.29; inactive. DNAJC24 (DnaJ heat shock protein family (Hsp40) member C24) gave TNF reporter robust z-score -0.47; inactive.

SAXO1 (stabilizer of axonemal microtubules 1) gave TNF reporter robust z-score 0.71; inactive. Against SAXO1 (stabilizer of axonemal microtubules 1), the values are TNF reporter robust z-score 0.94; inactive. SAXO1 (stabilizer of axonemal microtubules 1) gave TNF reporter robust z-score 2.04; inactive. For SAXO1 (stabilizer of axonemal microtubules 1), the values are TNF reporter robust z-score 2.01; inactive. BCDIN3D (BCDIN3 domain containing RNA methyltransferase) gave TNF reporter robust z-score 0.03; inactive. Against BCDIN3D (BCDIN3 domain containing RNA methyltransferase), the entry reads TNF reporter robust z-score -0.17; inactive.

Silencing of BCDIN3D (BCDIN3 domain containing RNA methyltransferase) resulted in: TNF reporter robust z-score -0.59; inactive. For BCDIN3D (BCDIN3 domain containing RNA methyltransferase), the entry reads TNF reporter robust z-score 1.24; inactive.

Active calls (from the list above):
FAM174C (family with sequence similarity 174 member C) | TNF reporter robust z-score = -1.6; Call = active
CBLN3 (cerebellin 3 precursor) | TNF reporter robust z-score = 3.3; Call = active
